Experimental data: PubChem BioAssay AID1159545 (Gurdon Institute, 2015)

Purpose: 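Screen of human E2 enzymes for effects on camptothecin-induced phospho-RPA2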
Cell system: human U2OS osteosarcoma cells
Reagent: siRNA against human genes, about 60 nM siRNA
Conditions: camptothecin 1 uM for 1 hour
Measurement: 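Western blot of phospho-RPA2 relative to total RPA2 after 1 µM camptothecin for 1 h, given as % of a luciferase siRNA control, with the undamaged value subtracted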
Scale: pRPA2/RPA2 after camptothecin, % control: higher = more RPA2 phosphorylation after camptothecin
Rule for the call: 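Active if the value lies under 60% or over 140% of the luciferase control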
In the full data, 21 (50%) got an active call. A number with no mark means an inactive call. The numbers tell different reagents against one gene apart. Not given: the time to read-out.

gene symbol	siRNA no.	pRPA2/RPA2 after camptothecin, % control
UBE2M	1	140
UBE2F	1	45.5 (active)
UEVLD	1	88.5
UBE2J1	1	33.7 (active)
UBE2H	1	60.9
UBE2V1	1	52.4 (active)
BIRC6	1	68.2
UBE2D1	1	72.6
UBE2Q1	1	29.2 (active)
UBE2L6	1	99.3
UBE2Q2	1	85.6
UBE2D4	1	76.9
AKTIP	1	85
UBE2N	1	3.26 (active)
UBE2N	2	37.8 (active)
UBE2A	1	36.3 (active)
UBE2R2	1	24.5 (active)
CDC34	1	6 (active)
UBE2V2	1	41.4 (active)
UBE2S	1	61.7
UBE2E1	1	112
UBE2E3	1	45.8 (active)
UBE2NL	1	60.2
UBE2U	1	22.7 (active)
UBE2G1	1	39.7 (active)
UBE2B	1	116
UBE2L3	1	32.9 (active)
UBE2C	1	107
UBE2O	1	6.42 (active)
TSG101	1	99.1
UBE2J2	1	65.4
UBE2Z	1	84.1
UBE2D3	1	0 (active)
BRCA1	1	102
UBE2K	1	27.2 (active)
UBE2G2	1	71
RBBP8	1	2.5 (active)
UBE2T	1	42.4 (active)
UBE2D2	1	7.58 (active)
UBE2W	1	42.1 (active)
UBE2E2	1	64.9
